# From the supplement of paper PMC6411743
# The chains behind the UniProt entries cited, without tags or fusion partners. Where a name states a change or a piece, a line headed by the entry shows the natural chain unless it says otherwise.
# UniProt Q12986: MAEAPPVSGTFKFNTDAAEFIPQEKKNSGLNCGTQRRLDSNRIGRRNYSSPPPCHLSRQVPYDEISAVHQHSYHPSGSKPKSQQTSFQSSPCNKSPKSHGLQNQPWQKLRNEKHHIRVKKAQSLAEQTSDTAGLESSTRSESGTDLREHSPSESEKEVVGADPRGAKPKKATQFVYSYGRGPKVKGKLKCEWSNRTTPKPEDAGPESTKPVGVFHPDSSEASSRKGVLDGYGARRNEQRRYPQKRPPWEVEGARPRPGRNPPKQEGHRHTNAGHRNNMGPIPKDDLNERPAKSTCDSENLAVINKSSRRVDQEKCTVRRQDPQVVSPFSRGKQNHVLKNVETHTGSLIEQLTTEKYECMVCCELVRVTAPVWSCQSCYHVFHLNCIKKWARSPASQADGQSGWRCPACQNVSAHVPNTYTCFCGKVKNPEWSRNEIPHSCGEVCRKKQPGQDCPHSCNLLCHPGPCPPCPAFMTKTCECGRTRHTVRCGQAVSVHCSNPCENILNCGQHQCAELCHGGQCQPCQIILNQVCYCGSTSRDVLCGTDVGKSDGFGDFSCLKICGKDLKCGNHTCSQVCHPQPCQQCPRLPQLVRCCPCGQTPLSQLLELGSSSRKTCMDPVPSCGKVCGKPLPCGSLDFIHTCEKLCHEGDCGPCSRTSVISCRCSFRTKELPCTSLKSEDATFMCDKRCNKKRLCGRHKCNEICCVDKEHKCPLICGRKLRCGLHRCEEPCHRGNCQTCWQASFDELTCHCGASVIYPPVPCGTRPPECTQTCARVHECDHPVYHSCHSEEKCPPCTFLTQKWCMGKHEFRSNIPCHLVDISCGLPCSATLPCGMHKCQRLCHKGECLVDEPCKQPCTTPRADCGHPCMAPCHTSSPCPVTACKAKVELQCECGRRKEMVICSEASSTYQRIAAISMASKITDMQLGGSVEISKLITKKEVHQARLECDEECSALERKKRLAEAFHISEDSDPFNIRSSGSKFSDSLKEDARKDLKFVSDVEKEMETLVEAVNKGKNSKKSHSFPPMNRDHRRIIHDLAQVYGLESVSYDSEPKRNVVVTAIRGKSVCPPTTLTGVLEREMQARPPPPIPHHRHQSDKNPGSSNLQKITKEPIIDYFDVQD
# UniProt Q13247: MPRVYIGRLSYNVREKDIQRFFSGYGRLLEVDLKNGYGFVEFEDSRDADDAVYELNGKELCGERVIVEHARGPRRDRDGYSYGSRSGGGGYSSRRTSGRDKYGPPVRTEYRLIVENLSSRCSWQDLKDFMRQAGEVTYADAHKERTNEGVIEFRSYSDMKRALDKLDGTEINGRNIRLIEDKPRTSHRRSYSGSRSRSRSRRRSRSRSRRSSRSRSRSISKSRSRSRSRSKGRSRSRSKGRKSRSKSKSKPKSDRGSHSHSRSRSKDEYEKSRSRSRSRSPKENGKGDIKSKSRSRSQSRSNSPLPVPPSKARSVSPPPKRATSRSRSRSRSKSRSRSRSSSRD
# UniProt Q01459: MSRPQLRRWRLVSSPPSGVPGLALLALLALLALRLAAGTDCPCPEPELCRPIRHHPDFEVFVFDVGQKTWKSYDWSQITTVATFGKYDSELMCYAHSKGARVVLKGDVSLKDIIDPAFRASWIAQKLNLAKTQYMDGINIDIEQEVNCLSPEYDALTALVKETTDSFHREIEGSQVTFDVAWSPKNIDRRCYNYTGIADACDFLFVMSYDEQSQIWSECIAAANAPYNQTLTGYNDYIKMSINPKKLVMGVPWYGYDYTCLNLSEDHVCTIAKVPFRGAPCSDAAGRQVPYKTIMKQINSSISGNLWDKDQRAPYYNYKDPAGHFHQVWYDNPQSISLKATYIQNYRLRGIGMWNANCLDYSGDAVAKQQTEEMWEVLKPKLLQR
# UniProt Q14011: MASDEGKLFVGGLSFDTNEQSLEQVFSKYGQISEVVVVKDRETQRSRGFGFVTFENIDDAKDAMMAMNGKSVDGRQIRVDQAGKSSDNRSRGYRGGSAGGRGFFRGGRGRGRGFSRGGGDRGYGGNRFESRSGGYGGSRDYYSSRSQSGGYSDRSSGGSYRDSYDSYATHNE
# UniProt Q08211, whole entry: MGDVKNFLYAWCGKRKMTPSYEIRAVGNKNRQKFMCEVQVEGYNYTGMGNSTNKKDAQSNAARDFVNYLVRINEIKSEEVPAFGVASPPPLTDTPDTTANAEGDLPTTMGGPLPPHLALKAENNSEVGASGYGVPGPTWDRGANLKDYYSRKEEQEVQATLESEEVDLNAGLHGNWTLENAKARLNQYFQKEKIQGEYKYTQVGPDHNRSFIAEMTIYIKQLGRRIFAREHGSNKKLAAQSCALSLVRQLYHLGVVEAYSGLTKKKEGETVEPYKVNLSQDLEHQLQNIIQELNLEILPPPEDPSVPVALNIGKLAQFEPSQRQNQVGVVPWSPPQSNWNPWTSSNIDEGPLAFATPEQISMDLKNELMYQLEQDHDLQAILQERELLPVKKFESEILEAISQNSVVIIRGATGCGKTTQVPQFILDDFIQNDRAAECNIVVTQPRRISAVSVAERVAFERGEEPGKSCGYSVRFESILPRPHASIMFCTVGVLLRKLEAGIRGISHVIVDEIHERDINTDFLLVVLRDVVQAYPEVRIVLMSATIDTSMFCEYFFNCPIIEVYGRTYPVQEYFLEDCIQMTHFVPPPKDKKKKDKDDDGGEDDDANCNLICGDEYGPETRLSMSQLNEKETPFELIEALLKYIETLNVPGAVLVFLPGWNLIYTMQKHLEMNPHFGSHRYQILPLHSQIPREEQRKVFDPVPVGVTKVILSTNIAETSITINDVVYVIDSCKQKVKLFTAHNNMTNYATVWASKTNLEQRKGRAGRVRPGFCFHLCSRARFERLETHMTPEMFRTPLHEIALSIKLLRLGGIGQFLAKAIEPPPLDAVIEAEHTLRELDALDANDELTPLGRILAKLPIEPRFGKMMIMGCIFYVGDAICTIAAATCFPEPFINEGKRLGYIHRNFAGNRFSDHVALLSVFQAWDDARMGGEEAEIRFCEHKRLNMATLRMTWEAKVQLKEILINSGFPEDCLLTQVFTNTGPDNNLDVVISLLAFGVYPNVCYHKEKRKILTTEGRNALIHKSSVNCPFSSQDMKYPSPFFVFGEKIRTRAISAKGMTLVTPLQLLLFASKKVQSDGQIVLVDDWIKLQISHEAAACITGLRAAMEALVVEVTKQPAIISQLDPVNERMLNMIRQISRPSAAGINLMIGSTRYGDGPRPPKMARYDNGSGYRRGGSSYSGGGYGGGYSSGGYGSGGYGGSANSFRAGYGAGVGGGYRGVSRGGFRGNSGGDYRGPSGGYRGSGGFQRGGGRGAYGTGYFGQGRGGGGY
# UniProt Q13761, whole entry: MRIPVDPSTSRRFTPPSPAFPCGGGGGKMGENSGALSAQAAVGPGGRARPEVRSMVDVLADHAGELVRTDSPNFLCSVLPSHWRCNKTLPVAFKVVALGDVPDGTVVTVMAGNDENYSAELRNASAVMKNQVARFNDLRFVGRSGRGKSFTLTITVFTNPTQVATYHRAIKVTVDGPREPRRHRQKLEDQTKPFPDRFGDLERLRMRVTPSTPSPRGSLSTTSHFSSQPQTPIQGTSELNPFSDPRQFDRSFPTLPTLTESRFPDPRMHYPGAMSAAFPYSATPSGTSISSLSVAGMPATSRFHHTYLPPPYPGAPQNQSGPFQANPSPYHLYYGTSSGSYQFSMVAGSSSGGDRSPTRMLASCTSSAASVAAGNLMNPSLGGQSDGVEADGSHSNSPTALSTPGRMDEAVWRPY
# UniProt Q13243: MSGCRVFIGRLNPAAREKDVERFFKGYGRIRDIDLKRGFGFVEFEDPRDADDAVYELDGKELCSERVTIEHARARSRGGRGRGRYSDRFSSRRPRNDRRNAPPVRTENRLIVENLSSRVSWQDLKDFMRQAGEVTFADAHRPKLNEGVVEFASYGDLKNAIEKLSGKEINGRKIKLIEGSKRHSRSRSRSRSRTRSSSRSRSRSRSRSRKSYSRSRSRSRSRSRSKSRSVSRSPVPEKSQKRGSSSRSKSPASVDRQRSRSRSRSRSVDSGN
# UniProt Q08170: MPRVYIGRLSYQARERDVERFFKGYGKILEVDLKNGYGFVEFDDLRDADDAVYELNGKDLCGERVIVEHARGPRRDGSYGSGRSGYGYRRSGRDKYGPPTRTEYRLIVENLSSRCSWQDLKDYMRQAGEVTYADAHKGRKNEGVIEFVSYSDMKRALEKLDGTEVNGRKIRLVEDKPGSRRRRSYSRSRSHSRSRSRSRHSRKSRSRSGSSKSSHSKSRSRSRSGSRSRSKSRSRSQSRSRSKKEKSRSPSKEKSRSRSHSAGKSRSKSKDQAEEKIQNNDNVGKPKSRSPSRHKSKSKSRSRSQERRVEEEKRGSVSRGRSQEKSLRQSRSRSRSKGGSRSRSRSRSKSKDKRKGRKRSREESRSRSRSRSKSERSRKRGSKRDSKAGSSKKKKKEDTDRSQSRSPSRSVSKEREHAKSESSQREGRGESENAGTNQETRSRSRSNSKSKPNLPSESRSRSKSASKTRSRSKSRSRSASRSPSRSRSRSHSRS
# UniProt Q13769: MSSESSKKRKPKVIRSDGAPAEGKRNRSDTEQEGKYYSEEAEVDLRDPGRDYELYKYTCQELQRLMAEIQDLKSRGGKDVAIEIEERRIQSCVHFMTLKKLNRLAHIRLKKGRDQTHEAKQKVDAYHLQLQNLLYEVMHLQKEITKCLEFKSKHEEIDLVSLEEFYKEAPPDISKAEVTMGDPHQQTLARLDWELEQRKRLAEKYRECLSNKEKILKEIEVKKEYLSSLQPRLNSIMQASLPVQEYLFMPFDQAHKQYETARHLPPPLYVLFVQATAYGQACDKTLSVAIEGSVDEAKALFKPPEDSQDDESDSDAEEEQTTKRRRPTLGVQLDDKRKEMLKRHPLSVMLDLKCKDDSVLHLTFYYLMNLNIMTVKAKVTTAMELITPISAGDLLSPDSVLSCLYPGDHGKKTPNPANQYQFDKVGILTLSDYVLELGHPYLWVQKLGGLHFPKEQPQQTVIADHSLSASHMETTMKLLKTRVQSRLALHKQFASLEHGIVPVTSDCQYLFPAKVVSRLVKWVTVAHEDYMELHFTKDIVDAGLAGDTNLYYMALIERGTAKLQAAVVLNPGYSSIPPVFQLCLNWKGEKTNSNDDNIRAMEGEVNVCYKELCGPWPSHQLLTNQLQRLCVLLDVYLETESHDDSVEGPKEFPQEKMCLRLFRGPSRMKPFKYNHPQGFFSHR
# UniProt Q13111, whole entry: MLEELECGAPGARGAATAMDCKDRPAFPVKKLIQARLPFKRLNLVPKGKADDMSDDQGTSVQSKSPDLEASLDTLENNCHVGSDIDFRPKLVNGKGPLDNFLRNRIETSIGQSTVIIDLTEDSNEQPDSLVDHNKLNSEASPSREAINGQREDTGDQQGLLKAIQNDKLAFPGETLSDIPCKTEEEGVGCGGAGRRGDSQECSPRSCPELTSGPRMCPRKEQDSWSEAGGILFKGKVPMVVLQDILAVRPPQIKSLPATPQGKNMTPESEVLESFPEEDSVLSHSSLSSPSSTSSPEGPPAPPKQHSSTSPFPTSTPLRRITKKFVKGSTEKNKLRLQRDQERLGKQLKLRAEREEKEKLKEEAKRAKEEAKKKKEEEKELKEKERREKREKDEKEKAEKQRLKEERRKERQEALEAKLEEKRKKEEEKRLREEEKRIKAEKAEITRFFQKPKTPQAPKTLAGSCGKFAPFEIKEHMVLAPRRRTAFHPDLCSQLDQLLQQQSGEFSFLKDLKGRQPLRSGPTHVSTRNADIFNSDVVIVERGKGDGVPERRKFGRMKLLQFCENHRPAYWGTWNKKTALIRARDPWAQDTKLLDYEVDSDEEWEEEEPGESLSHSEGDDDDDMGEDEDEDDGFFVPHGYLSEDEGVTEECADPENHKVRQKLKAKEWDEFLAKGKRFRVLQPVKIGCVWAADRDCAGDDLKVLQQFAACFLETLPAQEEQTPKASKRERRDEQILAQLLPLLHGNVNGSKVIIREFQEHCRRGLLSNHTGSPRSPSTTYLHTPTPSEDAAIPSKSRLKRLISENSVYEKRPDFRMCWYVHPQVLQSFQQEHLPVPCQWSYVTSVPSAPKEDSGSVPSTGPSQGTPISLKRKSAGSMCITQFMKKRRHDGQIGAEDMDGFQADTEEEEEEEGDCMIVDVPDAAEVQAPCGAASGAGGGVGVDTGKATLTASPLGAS
# UniProt Q13825: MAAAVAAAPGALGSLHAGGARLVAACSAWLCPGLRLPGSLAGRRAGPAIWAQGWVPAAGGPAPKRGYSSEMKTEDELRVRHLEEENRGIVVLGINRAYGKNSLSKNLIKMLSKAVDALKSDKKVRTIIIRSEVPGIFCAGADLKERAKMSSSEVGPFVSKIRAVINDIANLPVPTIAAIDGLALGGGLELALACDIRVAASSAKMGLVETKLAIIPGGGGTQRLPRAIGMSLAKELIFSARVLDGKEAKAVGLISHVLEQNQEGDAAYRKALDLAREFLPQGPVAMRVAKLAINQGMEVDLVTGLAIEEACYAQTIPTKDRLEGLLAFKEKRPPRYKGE
# UniProt Q14061: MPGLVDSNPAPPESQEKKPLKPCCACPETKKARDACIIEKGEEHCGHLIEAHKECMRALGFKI
# ± gives the standard deviation of the averaged measurements. The entries are a selection whose mix differs from that of the whole data set. Most entries show no effect beyond the scatter of the controls.
# Compound: Nc1ncnc2c1ncn2[C@@H]1O[C@H](COP(=O)(O)OP(=O)(O)OP(=O)(O)O)[C@@H](O)[C@H]1O [adenosine triphosphate]
# Assay: NP40-soluble protein abundance relative to vehicle (solubility fold change) (ratio); higher = more soluble protein in presence of ATP
# In short: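 Jurkat crude lysate (Dounce-homogenised) was treated with eight concentrations from 0.1 to 10 mM for 10 min at room temperature, then 3 min at 37 °C. It was solubilised with 0.8% NP40 and benzonase (60 min, 4 °C) and ultracentrifuged, and the supernatant was TMT-labelled for LC-MS/MS. Intensities were vsn-normalised, and the value is the fold change against the NP40-processed vehicle per replicate, from three independent experiments.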
Target,NP40-soluble protein abundance (concentration: 0.1mM),NP40-soluble protein abundance (concentration: 0.5mM),NP40-soluble protein abundance (concentration: 1mM),NP40-soluble protein abundance (concentration: 2mM),NP40-soluble protein abundance (concentration: 4mM),NP40-soluble protein abundance (concentration: 6mM),NP40-soluble protein abundance (concentration: 8mM),NP40-soluble protein abundance (concentration: 10mM)
UniProt Q13642-1|Q13642-4|Q13642-5,1.01 ± 0.12,0.988 ± 0.078,0.979 ± 0.17,0.968 ± 0.11,0.956 ± 0.098,0.926 ± 0.091,0.979 ± 0.12,0.983 ± 0.064
NFX1 (UniProt Q12986),1.06 ± 0.057,1.1 ± 0.023,1.07 ± 0.08,1.21 ± 0.042,1.34 ± 0.041,1.46 ± 0.046,1.62 ± 0.031,1.66 ± 0.11
C1QBP (UniProt Q07021),0.667 ± 0.29,0.954 ± 0.12,1.15 ± 0.48,0.69 ± 0.36,1.21 ± 0.26,0.585 ± 0.18,1.19 ± 0.24,0.587 ± 0.2
UniProt Q13247 and related entries,1.05 ± 0.059,1.64 ± 0.1,1.84 ± 0.25,1.98 ± 0.19,2 ± 0.21,2.28 ± 0.23,2.17 ± 0.17,2.15 ± 0.25
CTBS (UniProt Q01459),0.983 ± 0.05,0.999 ± 0.014,0.951 ± 0.04,0.98 ± 0.028,0.939 ± 0.038,0.957 ± 0.038,0.932 ± 0.032,0.955 ± 0.013
GALK2 (UniProt Q01415),0.996 ± 0.071,0.965 ± 0.076,0.938 ± 0.068,0.975 ± 0.073,0.985 ± 0.012,0.86 ± 0.12,0.956 ± 0.066,0.968 ± 0.037
CIRBP (UniProt Q14011),1 ± 0.035,1.02 ± 0.051,0.999 ± 0.062,1.02 ± 0.029,1.04 ± 0.033,1.1 ± 0.061,1.09 ± 0.051,1.1 ± 0.025
DHX9 (UniProt Q08211),1.1 ± 0.036,1.18 ± 0.046,1.24 ± 0.071,1.29 ± 0.043,1.49 ± 0.03,1.55 ± 0.024,1.88 ± 0.091,1.95 ± 0.15
UniProt Q13761 and related entries,1.17 ± 0.28,1 ± 0.027,1.07 ± 0.2,1.18 ± 0.35,1.18 ± 0.3,1.19 ± 0.31,1.13 ± 0.23,1.18 ± 0.13
UniProt Q13438 and related entries,0.994 ± 0.023,0.998 ± 0.058,0.953 ± 0.036,0.953 ± 0.049,0.94 ± 0.056,0.99 ± 0.069,0.939 ± 0.031,0.952 ± 0.045
UniProt Q13243,1.06 ± 0.026,1.4 ± 0.075,1.5 ± 0.12,1.63 ± 0.088,1.76 ± 0.12,1.95 ± 0.11,1.92 ± 0.13,1.98 ± 0.07
UniProt Q08170,1.06 ± 0.069,1.52 ± 0.095,1.58 ± 0.12,1.68 ± 0.08,1.66 ± 0.095,1.81 ± 0.058,1.68 ± 0.052,1.64 ± 0.073
UniProt Q13409 and related entries,1 ± 0.073,0.993 ± 0.1,0.957 ± 0.063,0.957 ± 0.037,0.953 ± 0.059,0.994 ± 0.18,0.975 ± 0.089,0.973 ± 0.074
CUL4A (UniProt Q13619),1.04 ± 0.093,1.02 ± 0.058,0.99 ± 0.13,0.955 ± 0.08,0.918 ± 0.08,0.89 ± 0.098,0.963 ± 0.047,0.94 ± 0.047
THOC5 (UniProt Q13769),1.09 ± 0.044,1.48 ± 0.073,1.53 ± 0.054,1.68 ± 0.11,2.01 ± 0.17,2.23 ± 0.28,2.52 ± 0.27,2.52 ± 0.29
UniProt Q13045 and related entries,1.02 ± 0.04,1.04 ± 0.04,1.01 ± 0.039,0.985 ± 0.042,0.974 ± 0.03,0.949 ± 0.058,0.976 ± 0.026,0.968 ± 0.051
UniProt Q13111 and related entries,0.993 ± 0.019,1.03 ± 0.065,0.987 ± 0.059,0.988 ± 0.028,0.97 ± 0.035,1.03 ± 0.031,0.977 ± 0.036,1.01 ± 0.036
AUH (UniProt Q13825),1.02 ± 0.037,1.008 ± 0.0041,0.96 ± 0.062,0.979 ± 0.049,0.967 ± 0.035,0.93 ± 0.082,0.96 ± 0.055,0.973 ± 0.036
UniProt Q13137 and related entries,1 ± 0.03,1.02 ± 0.07,0.962 ± 0.033,0.968 ± 0.032,0.9319 ± 0.0066,0.986 ± 0.03,0.941 ± 0.012,0.948 ± 0.026
UniProt Q01543 and related entries,0.983 ± 0.025,0.999 ± 0.029,0.989 ± 0.05,0.997 ± 0.013,0.996 ± 0.032,1.01 ± 0.048,0.969 ± 0.033,0.9608 ± 0.0033
BNIP1 (UniProt Q12981),0.949 ± 0.089,0.959 ± 0.034,0.986 ± 0.051,0.983 ± 0.05,0.98 ± 0.07,1 ± 0.012,0.971 ± 0.049,0.932 ± 0.053
COX17 (UniProt Q14061),0.96 ± 0.075,0.958 ± 0.039,0.938 ± 0.1,0.895 ± 0.074,0.92 ± 0.1,0.963 ± 0.033,0.859 ± 0.056,0.847 ± 0.023
UniProt Q13057 and related entries,1.06 ± 0.086,1.07 ± 0.092,1.01 ± 0.061,1.02 ± 0.072,1.02 ± 0.086,0.962 ± 0.094,1.04 ± 0.095,1.02 ± 0.075

# Quoted from the listing for reference:
Target,NP40-soluble protein abundance (concentration: 0.1mM),NP40-soluble protein abundance (concentration: 0.5mM),NP40-soluble protein abundance (concentration: 1mM),NP40-soluble protein abundance (concentration: 2mM),NP40-soluble protein abundance (concentration: 4mM),NP40-soluble protein abundance (concentration: 6mM),NP40-soluble protein abundance (concentration: 8mM),NP40-soluble protein abundance (concentration: 10mM)
UniProt Q08170,1.06 ± 0.069,1.52 ± 0.095,1.58 ± 0.12,1.68 ± 0.08,1.66 ± 0.095,1.81 ± 0.058,1.68 ± 0.052,1.64 ± 0.073
UniProt Q13409 and related entries,1 ± 0.073,0.993 ± 0.1,0.957 ± 0.063,0.957 ± 0.037,0.953 ± 0.059,0.994 ± 0.18,0.975 ± 0.089,0.973 ± 0.074
